Reference: paper PMC9754640, “Z-REX uncovers a bifurcation in function of Keap1 paralogs” (eLife, 2022)
These are yes or no findings as the source states them, for the method shown. Binding seen in cells or lysates may run through a third protein. Some entries that bind do so weakly or less than the wild type. Tags and fused reporters may be left off the sequences shown.

Target: T1, Myc-Halo-TEV-3xFlag-zKeap1a (zebrafish (Danio rerio)) (UniProt Q1ECZ2)
T1 sequence: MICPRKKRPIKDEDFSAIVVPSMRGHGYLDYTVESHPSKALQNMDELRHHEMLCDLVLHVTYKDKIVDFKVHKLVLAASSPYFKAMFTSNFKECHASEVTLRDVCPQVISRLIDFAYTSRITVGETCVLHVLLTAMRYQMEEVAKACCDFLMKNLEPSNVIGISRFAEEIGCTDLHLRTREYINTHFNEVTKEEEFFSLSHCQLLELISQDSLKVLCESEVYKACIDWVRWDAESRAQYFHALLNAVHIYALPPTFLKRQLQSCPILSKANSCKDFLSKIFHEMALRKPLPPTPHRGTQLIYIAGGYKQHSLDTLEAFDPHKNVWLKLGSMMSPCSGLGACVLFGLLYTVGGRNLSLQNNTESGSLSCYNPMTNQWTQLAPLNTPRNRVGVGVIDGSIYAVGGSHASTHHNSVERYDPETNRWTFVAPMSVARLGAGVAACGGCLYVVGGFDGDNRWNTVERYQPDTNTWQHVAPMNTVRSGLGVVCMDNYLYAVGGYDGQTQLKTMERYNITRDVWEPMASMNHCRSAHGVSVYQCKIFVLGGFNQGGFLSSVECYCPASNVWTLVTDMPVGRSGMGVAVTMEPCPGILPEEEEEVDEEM
Test: co-IP; anti-Flag M2 agarose on normalised lysates (2 mg/mL) of HEK293T cells co-transfected with HA-Nrf2 and Halo-TEV-3xFlag-zKeap1a, -zKeap1b, both, or empty vector; cells treated with 25 uM NE or DMSO for 18 h before lysis; 50 mM Hepes pH 7.6, 150 mM NaCl, 0.1% Tween-20, overnight at 4 °C; eluted with 3xFlag peptide; western blot

B1: HA-Nrf2 (protein, UniProt Q16236 1-605)
chain: MMDLELPPPGLPSQQDMDLIDILWRQDIDLGVSREVFDFSQRRKEYELEKQKKLEKERQEQLQKEQEKAFFAQLQLDEETGEFLPIQPAQHIQSETSGSANYSQVAHIPKSDALYFDDCMQLLAQTFPFVDDNEVSSATFQSLVPDIPGHIESPVFIATNQAQSPETSVAQVAPVDLDGMQQDIEQVWEELLSIPELQCLNIENDKLVETTMVPSPEAKLTEVDNYHFYSSIPSMEKEVGNCSPHFLNAFEDSFSSILSTEDPNQLTVNSLNSDATVNTDFGDEFYSAFIAEPSISNSMPSPATLSHSLSELLNGPIDVSDLSLCKAFNQNHPESTAEFNDSDSGISLNTSPSVASPEHSVESSSYGDTLLGLSDSEVEELDSAPGSVKQNGPKTPVHSSGDMVQPLSPSQGQSTHVHDAQCENTPEKELPVSPGHRKTPFTKDKHSSRLEAHLTRDELRAKALHIPFPVEKIINLPVVDFNEMMSKEQFNEAQLALIRDIRRRGKNKVAAQNCRKRKLENIVELEQDLDHLKDEKEKLLKEKGENDKSLHLLKKQLSTLYLEVFSMLRDEDGKPYSPSEYSLQQTRDGNVFLVPKSKKPDVKKN
  binding: binds
